Hit rate of the full screen: of about 200,000 compounds, about 25 (0.01%) were called active. Inconclusive means that the source gave no clear call. Such entries were picked first, then a sample of the others. The call rests on the fitted dose curve; in most records, active means well fitted inhibition curve with a large enough effect in the signal ratio, with a control signal flat (not every such curve was filed as active); inconclusive means small, poorly fitted or top-dose-only effect, or effect the other way, or a change in a side signal; inactive means flat fitted curve, though single readings scatter; the % refers to the signal ratio. Potencies beside an inconclusive call are fits to weak or partial responses and may not hold up.
Assay: qHTS Assay for Modulators of Lamin A Splicing
Conditions: HeLa LMNA splicing GFP/RFP minigene ratio, 48 h; ratio change, negative = inhibition: at 46.1 µM (top of the series) unless noted
Summary of the method: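 Read-out is the ratio of GFP to DsRed2 object intensity, acquired by 488 nm laser-scanning cytometry on HeLa lamin A-EGFP minigene reporter cells. Compound incubation 48 hrs at 37 °C in Opti-MEM with 2% FBS; DMSO 0.5% final.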
On the % scale 0 is the no-effect control and ±100 the full control effect; potency means the concentration at half of the fitted maximal effect.

Row | Structure (SMILES) | ratio change, negative = inhibition | Potency
1 | O=C(COc1ccccc1)NCc1ccc2c(c1)CCN2C(=O)c1ccc(Cl)cc1 | inconclusive: 25.8% [at 46 µM] | 
2 | COc1ccc(NC(=O)N(CCC(C)C)C(C)c2cccs2)c(OC)c1 (configuration not stated) | inactive: -0.445% [at 46 µM] | 
3 | CC(C)Cn1c(=O)n(C)c(=O)c2[nH]cnc21 | inconclusive: 41.4% [at 46 µM] | 
4 | O=c1[nH]cnc2c1ncn2[C@@H]1O[C@H](CO)[C@@H](O)[C@H]1O | inconclusive: -1.64% | 
5 | O=C(NCc1ccco1)c1ccc(Cn2c(SCc3ccc(F)cc3)nc3cccnc32)cc1 | inconclusive: -21.6% [at 46 µM] | 
6 | COc1cccc(/C=C/c2nc3c(cnn3-c3ccccc3)c(=O)[nH]2)c1 | inconclusive: 27% [at 46 µM] | 
7 | Cc1cc(NC(=O)c2c(Cl)cnn2C)no1 | inactive: 8.27% | 
8 | COc1ccc(CNC(=O)Cn2nnc(-c3ccc(C(F)(F)F)cc3)n2)cc1 | inactive: 6.2% [at 46 µM] | 
9 | CC(=O)c1cn(CC(=O)Nc2ccc(C)cc2)c2ccccc12 |  | inconclusive: 2.82 µM [falling, full curve]
10 | COc1cc2c(cc1OC)C(C(=O)NCc1ccco1)C1c3ccccc3CCN1C2=O (configuration not stated) | inconclusive: 9.89% | 
11 | O=C(COc1ccccc1)NCCc1csc(-c2ccc(Cl)cc2)n1 | inconclusive: 9.97% [at 46 µM] | 
12 | O=C(c1ccc2c(c1)OCCO2)N(Cc1cccnc1)c1nc2c(Cl)cccc2s1 | inconclusive: -22.7% [at 46 µM] | 
13 | COC(C(=O)Nc1ccc(S(=O)(=O)Nc2ccc(C)c(C)c2)cc1)c1ccccc1 (configuration not stated) | inconclusive: -35.3% | 
14 | Cc1cc(=O)n2c(ccc3ccccc32)c1C#N | inconclusive: -0.967% | 
15 | CC(C)(C)C(=O)NC(n1cnc2c(N3CCOCC3)ncnc21)C(Cl)(Cl)Cl (configuration not stated) | inconclusive: -8.7% [at 46 µM] | 
16 | CSCCC(NC(=O)c1ccc(Cl)cc1)C(=O)OCC(=O)Nc1cc(Cl)ccc1C#N (configuration not stated) | inconclusive: -7.27% | 
17 | Fc1cc(NCc2ccccc2)nc(NCc2ccccc2)n1 |  | inconclusive: 35.5 µM [fluorescent, single point]
18 | CCOc1ccc(NC(=O)c2c(NCc3cccnc3)sc3c2CCCC3)cc1 | inconclusive: -27.6% [at 46 µM] | 
19 | COC(=O)c1cccc(Cn2cc([N+](=O)[O-])cn2)c1 | inactive: -18.9% [at 46 µM] | 
20 | S=C(NCC1CCCO1)Nc1ccc(Cl)cc1 (configuration not stated) | inconclusive: -3.09% | 
21 | COc1ccc(/C=C2/SC(=S)N(CCC(=O)O)C2=O)cc1 | inconclusive: 21% | 

Row | Structure (SMILES) | ratio change, negative = inhibition | Potency
22 | O=C(N/N=C/c1c(O)ccc2ccccc12)c1[nH]ncc1Br |  | inconclusive: 12.6 µM [falling, partial curve]
23 | O=C(Cn1cc(C(F)(F)F)ccc1=O)N/N=C/c1cccc(Cl)c1Cl | inconclusive: 12.2% | 
24 | Cc1sc2ncnc(NC3CCN(Cc4ccccc4)CC3)c2c1C | inconclusive: -13.8% [at 46 µM] | 
25 | Cc1cc(O)c2ccccc2c1O |  | inconclusive: 11.2 µM [rising, single point]
26 | COc1ccccc1Nc1nc(-c2c(C)nc3ncccn23)cs1 | inconclusive: -44% [at 46 µM] | 
27 | CC1(C)CC(=O)C(C=NCC(N)=O)=C(O)C1 | inactive: -8.95% | 
28 | COc1cccc(N2C(=O)CC(N3CCC(C(N)=O)(N4CCCCC4)CC3)C2=O)c1 (configuration not stated) | inactive: -6.32% | 
29 | Cc1cc(C=C2C(=O)c3ccccc3C2=O)c(C)n1-c1ccc(Cl)cc1 | inactive: -12.5% | 
30 | NCCOB(c1ccccc1)c1ccccc1 | inconclusive: 26.1% | 
31 | CCC1CCCCN1C(=S)NC(=O)c1cccs1 (configuration not stated) | inactive: 9.21% [at 46 µM] | 
32 | CCCC(=O)NC(=S)Nc1cccc(C(C)=O)c1 | inactive: 11.2% | 
33 | O=c1ccc2ccccc2o1 | inconclusive: 1.81% | 
34 | COCCNC(=S)N/N=C(\C)c1ccccc1F | inconclusive: 40% [at 46 µM] | 
35 | COc1ccc(OC)c(NC(=O)c2ccc3nc(C(C)C)oc3c2)c1 | inactive: 6.56% [at 46 µM] | 
36 | CC(C)(C)n1nnnc1CN1C2CCC1CC(NC(=O)Nc1ccccc1)C2 (configuration not stated) | inactive: -1.94% | 
37 | Cc1ccccc1CN1CCC(CNC(=O)c2cc3ccc4cccnc4c3[nH]2)CC1 |  | inconclusive: 35.5 µM [inhibitor, single point]
38 | COC(=O)C1=C(C)N(CCCC(=O)O)C(=O)NC1c1cccs1 (configuration not stated) | inconclusive: 2.27% | 
39 | COc1ccc(-c2cc(C(F)(F)F)n3nc(C(=O)OC(C)C)cc3n2)cc1 | inconclusive: 14.6% [at 46 µM] | 
40 | Cc1cc2c(n1-c1ccc(C(=O)NCCc3ccc(Cl)cc3)cc1)CCC(C)C2 (configuration not stated) | inconclusive: -23.1% [at 46 µM] | 
41 | Cc1nn(Cc2ccccc2)c(Cl)c1/C=C/C(=O)OC(C)C(=O)N1CCCC1 (configuration not stated) |  | inconclusive: 25.1 µM [inhibitor, partial curve, poor fit]
42 | O=C(C1CCN(S(=O)(=O)c2ccc(-n3cnnn3)cc2)CC1)N1CCN(c2ccccc2)CC1 | inactive: 5.23% | 

Row | Structure (SMILES) | ratio change, negative = inhibition | Potency
43 | COC(=O)CCC/C=C1/SCC(NC(=O)c2ccccc2)C1O (configuration not stated) | inconclusive: 0.316% | 
44 | Nc1nc(SCC(=O)N2CCc3ccccc32)[nH]c(=O)c1-c1ccccc1 | inconclusive: 35.5% | 
45 | Cn1cnnc1SCC(=O)Nc1ccc2nc(SCc3cccc4ccccc34)sc2c1 | inconclusive: 27.5% | 
46 | CN(c1ccccc1C(=O)Nc1ccccc1C(=O)NCc1ccco1)S(C)(=O)=O | inactive: -2.71% | 
47 | O=C(C1CCCN1C(=O)c1cccs1)N1CCc2ccccc21 (configuration not stated) | inconclusive: 21.1% | 
48 | CN(C)CCCN1c2ccccc2Sc2ccc(Cl)cc21 | inconclusive: -9.48% | inconclusive: 7.08 µM [inhibitor, partial curve, poor fit]
49 | Cc1cccc(N=N/C(=C\O)C(=O)c2cccs2)c1 |  | inconclusive: 35.5 µM [cytotoxic, single point]
50 | COc1ccccc1NS(=O)(=O)c1cccc(NC(=O)Nc2cccc(Cl)c2)c1 | inconclusive: 34.3% | 
51 | Cc1ccccc1NC(=S)N(CCc1c(C)[nH]c2ccc(F)cc12)Cc1ccncc1 | inconclusive: 11.7% [at 9.22 µM] | 
52 | Cc1nn(CC2CC2)c(=O)n1-c1ccc(F)cc1 | inconclusive: 14.2% [at 46 µM] | 
53 | O=C(NC(c1ccccc1)c1cc(Cl)c2cccnc2c1O)c1cccnc1 (configuration not stated) | inactive: -15.6% | 
54 | CCOC(=O)C1=C(C)NC(=O)CC1c1cc(OC)c(OC)cc1Br (configuration not stated) | inconclusive: -5.67% [at 46 µM] | 
55 | Cc1ccc(C2C=C(c3ccc(Cl)cc3)Nc3nc(NC(=O)CCC(=O)O)nn32)cc1 (configuration not stated) | inconclusive: 35.6% [at 46 µM] | 
56 | N#CC1=C(Nc2ccccc2)SC=C(c2ccc(Cl)c(Cl)c2)N=C1N1CCOCC1 | inactive: 12.7% [at 0.0737 µM] | 
57 | Oc1ccc2cc(Br)ccc2c1CN1CCCC1 | inconclusive: -24.9% [at 46 µM] | 
58 | Cc1ccc2nc(-c3ccccc3O)c(Nc3ccc4c(c3)OCCO4)n2c1 | inactive: -4.75% | 
59 | Cc1ccc(NS(=O)(=O)c2ccc3[nH]c4c(c3c2)CCCCCC4)cc1C |  | inconclusive: 35.5 µM [cytotoxic, single point]
60 | CCCCN(CCCNC(=O)C1CCN(S(=O)(=O)N2CCOCC2)CC1)c1ccccc1 |  | inconclusive: 35.5 µM [falling, single point]
61 | Cc1nc2sc(C(c3ccc(Cl)cc3)N3CCOCC3)c(O)n2n1 (configuration not stated) | inconclusive: 6.58% | 
62 | Cn1c(C(=O)NCc2ccccc2F)cc2cc(S(=O)(=O)N3CCCCC3)ccc21 | inconclusive: -15.7% [at 46 µM] | 
63 | COc1cccc(/C=N/NC(=O)c2ccc([N+](=O)[O-])cc2Cl)c1O |  | inconclusive: 12.6 µM [falling, partial curve]

Part of the list above in another layout:
COC(=O)CCC/C=C1/SCC(NC(=O)c2ccccc2)C1O (configuration not stated)
  ratio change, negative = inhibition: inconclusive: 0.316%
Nc1nc(SCC(=O)N2CCc3ccccc32)[nH]c(=O)c1-c1ccccc1
  ratio change, negative = inhibition: inconclusive: 35.5%
Cn1cnnc1SCC(=O)Nc1ccc2nc(SCc3cccc4ccccc34)sc2c1
  ratio change, negative = inhibition: inconclusive: 27.5%

More records:

Row | Structure (SMILES) | ratio change, negative = inhibition | Potency
64 | CCN(CC)CCOCCOC(=O)C(CC)(CC)c1ccccc1 (tested in a mixture with another compound) | inconclusive: -15.3% | 
65 | CCN(CC)C(=O)c1sc2c(c1C)c(=O)n(Cc1ccccc1)c(=O)n2Cc1c(C)cc(C)cc1C | inconclusive: 6.78% [at 46 µM] | 
66 | NNC(=O)/C(=N/Nc1ccccc1)S(=O)(=O)c1ccc(Cl)cc1 |  | inconclusive: 35.5 µM [falling, single point]
67 | Cc1ccccc1C1C(C#N)=C2N=C(N)c3c(sc4c3CCCCC4)N2C2=C1C(=O)CCC2 (configuration not stated) | inconclusive: 5.39% | 
68 | Cc1ccc(S(=O)(=O)n2nccc2-c2c(-c3ccccc3)noc2C)cc1 | inconclusive: 12.7% [at 46 µM] | 
69 | COc1ccc(NCc2nnc(SCc3ccc(Cl)cc3)n2-c2ccccc2)cc1 | inconclusive: -48.3% | 
70 | CC(=O)Nc1sc2c(c1C(c1ccc(F)cc1)N1CCOCC1)CCCC2 (configuration not stated) | inconclusive: -6.26% | 
71 | CN1CCN(c2ncc3nc(-c4cc(F)cc(F)c4)c(=O)n(CCC#N)c3n2)CC1 | inactive: -3.42% | 
72 | CCCC1=C/C(=C/c2ccc(-c3ccccc3OC)o2)C(=O)O1 | inconclusive: 4.61% | 
73 | CCOCCCNCC(=O)Nc1ccc(OC(F)(F)F)cc1 | inactive: 18.6% | 
74 | COc1ccc(-c2ccc(/C=C3/C(=N)N4C(C)=CSC4=NC3=O)o2)c([N+](=O)[O-])c1 | inactive: -26.7% | 
75 | Clc1ccccc1-c1nc(N/N=C/c2cccnc2)c2ccccc2n1 | inconclusive: -14.8% | 
76 | Cc1ccc(-n2nc3c([n+]2[O-])CCc2c-3no[n+]2[O-])cc1 | inconclusive: 20.5% | 
77 | Cc1noc(C)c1-c1ccc2ncnc(N3CCN(C)CC3)c2c1 |  | active: 7.08 µM
78 | CN(C)c1ccc(-c2cncnc2Nc2ccccc2)cc1 | inconclusive: -12.8% | 
79 | COC(=O)Cc1c(C(=O)OC)nnn1-c1ccc(OC)cc1 | inconclusive: -7.89% [at 46 µM] | 
80 | COc1ccc(NC(=O)Cc2ccc(C)cc2)c([N+](=O)[O-])c1 | inconclusive: -33.8% | 
81 | N#CCC(=O)Nc1ncn(Cc2ccccc2Cl)n1 | inactive: -14.1% | 

Source: PubChem BioAssay AID1487 (National Center for Advancing Translational Sciences (NCATS), 2009)
